Test results from article PMC2447831.
Results are given in words; binding and its absence hold for the method and conditions named. Binding seen in cells or lysates may run through a third protein. Some entries that bind do so weakly or less than the wild type. Sequences can lack the tags named with a protein.

By UniProt entry, the sequences of proteins in these tests, tags left out. Where a name states a change or a piece, a line headed by the entry shows the natural chain unless it says otherwise.
UniProt P46531: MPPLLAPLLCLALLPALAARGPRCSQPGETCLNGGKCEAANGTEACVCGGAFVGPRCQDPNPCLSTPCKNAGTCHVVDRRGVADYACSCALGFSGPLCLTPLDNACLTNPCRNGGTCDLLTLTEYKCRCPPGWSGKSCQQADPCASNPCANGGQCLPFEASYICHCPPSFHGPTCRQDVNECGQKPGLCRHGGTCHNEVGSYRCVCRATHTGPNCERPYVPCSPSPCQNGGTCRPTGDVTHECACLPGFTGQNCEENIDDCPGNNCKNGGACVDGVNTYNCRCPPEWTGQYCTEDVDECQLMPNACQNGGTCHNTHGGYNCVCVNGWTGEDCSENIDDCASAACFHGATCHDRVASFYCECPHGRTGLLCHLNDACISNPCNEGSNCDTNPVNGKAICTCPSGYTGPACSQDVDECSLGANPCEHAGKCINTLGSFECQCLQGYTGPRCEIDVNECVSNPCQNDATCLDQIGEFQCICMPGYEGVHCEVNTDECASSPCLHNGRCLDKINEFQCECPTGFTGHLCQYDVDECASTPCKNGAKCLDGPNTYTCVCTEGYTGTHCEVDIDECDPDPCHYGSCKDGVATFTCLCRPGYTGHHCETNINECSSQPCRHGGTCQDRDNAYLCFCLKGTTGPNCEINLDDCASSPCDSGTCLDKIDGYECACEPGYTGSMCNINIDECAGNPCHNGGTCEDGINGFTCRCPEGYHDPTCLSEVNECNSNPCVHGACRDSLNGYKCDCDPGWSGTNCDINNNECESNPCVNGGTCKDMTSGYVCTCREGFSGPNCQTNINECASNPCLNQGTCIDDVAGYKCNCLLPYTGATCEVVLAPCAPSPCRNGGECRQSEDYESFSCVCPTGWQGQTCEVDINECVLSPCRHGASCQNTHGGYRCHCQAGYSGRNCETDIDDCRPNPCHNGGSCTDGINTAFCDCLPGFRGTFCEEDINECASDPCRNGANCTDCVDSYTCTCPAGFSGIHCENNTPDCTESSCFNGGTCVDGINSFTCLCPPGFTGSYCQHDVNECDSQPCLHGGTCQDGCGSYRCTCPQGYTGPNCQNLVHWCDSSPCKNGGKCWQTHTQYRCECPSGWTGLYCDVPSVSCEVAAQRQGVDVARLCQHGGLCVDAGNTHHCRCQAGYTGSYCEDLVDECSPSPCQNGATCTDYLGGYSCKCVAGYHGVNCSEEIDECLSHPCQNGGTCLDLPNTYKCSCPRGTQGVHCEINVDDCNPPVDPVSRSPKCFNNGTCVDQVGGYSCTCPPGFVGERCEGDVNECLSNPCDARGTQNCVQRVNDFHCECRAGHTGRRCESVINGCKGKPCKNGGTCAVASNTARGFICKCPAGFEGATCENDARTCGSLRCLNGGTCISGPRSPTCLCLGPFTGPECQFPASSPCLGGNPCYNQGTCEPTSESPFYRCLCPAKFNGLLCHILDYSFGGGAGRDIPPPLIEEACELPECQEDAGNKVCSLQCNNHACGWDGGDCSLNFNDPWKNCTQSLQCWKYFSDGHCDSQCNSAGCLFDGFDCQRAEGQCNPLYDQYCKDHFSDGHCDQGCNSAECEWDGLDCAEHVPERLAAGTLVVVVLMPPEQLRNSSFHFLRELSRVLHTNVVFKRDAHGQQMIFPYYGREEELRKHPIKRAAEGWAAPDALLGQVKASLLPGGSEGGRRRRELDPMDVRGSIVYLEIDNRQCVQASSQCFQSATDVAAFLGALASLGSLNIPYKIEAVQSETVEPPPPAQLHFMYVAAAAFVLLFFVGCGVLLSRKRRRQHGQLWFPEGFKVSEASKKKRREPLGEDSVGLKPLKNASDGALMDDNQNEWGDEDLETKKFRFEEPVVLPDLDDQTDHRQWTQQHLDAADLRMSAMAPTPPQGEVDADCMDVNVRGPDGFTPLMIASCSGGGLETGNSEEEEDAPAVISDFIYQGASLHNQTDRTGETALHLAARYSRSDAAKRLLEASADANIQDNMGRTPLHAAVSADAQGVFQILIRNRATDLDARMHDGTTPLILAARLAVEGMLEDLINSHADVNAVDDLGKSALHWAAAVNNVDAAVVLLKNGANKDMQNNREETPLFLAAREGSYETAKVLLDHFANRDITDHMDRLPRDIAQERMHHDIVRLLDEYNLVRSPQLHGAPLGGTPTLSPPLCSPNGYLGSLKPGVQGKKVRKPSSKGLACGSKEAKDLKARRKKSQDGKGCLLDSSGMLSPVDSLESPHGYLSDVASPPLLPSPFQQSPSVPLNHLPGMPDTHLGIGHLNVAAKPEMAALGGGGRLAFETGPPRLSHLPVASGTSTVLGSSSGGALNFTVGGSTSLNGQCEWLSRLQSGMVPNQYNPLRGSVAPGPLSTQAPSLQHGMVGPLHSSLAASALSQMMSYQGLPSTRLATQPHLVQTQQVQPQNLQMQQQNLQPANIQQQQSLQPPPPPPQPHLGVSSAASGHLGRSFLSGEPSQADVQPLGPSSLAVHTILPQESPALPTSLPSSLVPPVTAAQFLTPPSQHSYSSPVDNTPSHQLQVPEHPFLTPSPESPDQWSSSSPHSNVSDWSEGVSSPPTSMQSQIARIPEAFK

Biological target: T1, Dab-1 with a flag tag added to its C terminus (UniProt O75553)
T1 sequence: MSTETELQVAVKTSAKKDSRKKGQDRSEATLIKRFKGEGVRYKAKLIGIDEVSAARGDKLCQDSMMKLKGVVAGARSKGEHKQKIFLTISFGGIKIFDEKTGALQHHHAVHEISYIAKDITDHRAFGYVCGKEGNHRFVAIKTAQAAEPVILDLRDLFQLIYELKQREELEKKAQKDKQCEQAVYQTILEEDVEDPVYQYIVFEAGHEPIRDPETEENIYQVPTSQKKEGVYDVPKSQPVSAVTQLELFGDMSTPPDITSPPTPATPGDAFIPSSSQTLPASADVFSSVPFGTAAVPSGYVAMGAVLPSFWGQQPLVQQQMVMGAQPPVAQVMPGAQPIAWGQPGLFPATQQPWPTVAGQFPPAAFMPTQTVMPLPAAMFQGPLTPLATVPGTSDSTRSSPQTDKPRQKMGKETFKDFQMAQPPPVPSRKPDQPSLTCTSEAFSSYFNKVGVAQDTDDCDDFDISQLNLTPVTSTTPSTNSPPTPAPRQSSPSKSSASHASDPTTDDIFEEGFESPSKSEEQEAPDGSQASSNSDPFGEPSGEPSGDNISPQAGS
Assay: co-IP; HNPCs transfected with Dab-1-FLAG for 24 hours; lysed in RIPA buffer (150 mM NaCl, 1% IGEPAL CA-630, 0.5% sodium deoxycholate, 0.1% SDS, 50 mM Tris pH 8.0) with 1% Triton-X; 700 ug protein with anti-Flag, anti-Notch-1 or anti-NICD for 3 hours at 4 C, protein G- or A-Sepharose 1 hr at 4 C, washed 5x with lysis buffer; western blot

Row | Substance | binding
1 | Notch-1 intracellular domain (NICD) (from UniProt P46531 1754-2555) (domain or fragment) | binds
2 | full-length Notch-1 (from UniProt P46531 19-2555) (receptor) | binds
